Results from the supplement of paper PMC10849652.
The other results are listed elsewhere or left out.

Columns and labels:
Test in all cases: log2 fold change, soluble protein after heating vs DMSO (PISA); higher = thermal stabilisation; K562 lysate, 10 uM; active = over 0.2 and 3.5 SD of the protein, either way, in both replicates (recomputed)
crizotinib = compound: C[C@@H](Oc1cc(-c2cnn(C3CCNCC3)c2)cnc1N)c1c(Cl)ccc(F)c1Cl [crizotinib]
How it was run: (§1)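 Log-two fold change in thermal stability relative to solvent controls is reported from duplicates. For each sample, crude K562 extract from dounce-homogenised pellets in PBS pH 7.4 with 1 mM MgCl2, at 1 mg/mL protein, was treated with 10 μM compound for 30 min. Aliquots heated for 3 min across 48°C-58°C were pooled, brought to 0.5% NP-40 at 4°C and cleared at 21,000xg for 90 min. The supernatant was quantified by TMTpro 16plex LC-MS/MS with channel sums equalised.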

[1] = compound: C[C@H](C1=CC=C(C=C1)C(=O)NC2=C3C=CNC3=NC=C2)N
How it was run: as §1

gandotinib = compound: Cc1cc(Nc2cc(CN3CCOCC3)c3nc(C)c(Cc4ccc(Cl)cc4F)n3n2)n[nH]1 [gandotinib]
How it was run: as §1

doramapimod = compound: Cc1ccc(-n2nc(C(C)(C)C)cc2NC(=O)Nc2ccc(OCCN3CCOCC3)c3ccccc23)cc1 [doramapimod]
How it was run: as §1

[2] = compound: Cc1cccc(CC(=O)N2CCc3c2ccc(-c2cn(C)c4ncnc(N)c24)c3F)n1
How it was run: as §1

quisinostat = compound: Cn1cc(CNCC2CCN(c3ncc(C(=O)NO)cn3)CC2)c2ccccc21 [quisinostat]
How it was run: as §1

[3] = compound: NC(=O)Nc1cc(-c2cccc(F)c2)sc1C(=O)N[C@H]1CCCNC1
How it was run: as §1

duvelisib = compound: C[C@H](Nc1ncnc2nc[nH]c12)c1cc2cccc(Cl)c2c(=O)n1-c1ccccc1 [duvelisib]
How it was run: as §1

nilotinib = compound: Cc1cn(-c2cc(NC(=O)c3ccc(C)c(Nc4nccc(-c5cccnc5)n4)c3)cc(C(F)(F)F)c2)cn1 [nilotinib]
How it was run: as §1

[4] = compound: Cc1nc(Nc2n[nH]c3c2CN(C(=O)N[C@H](CN(C)C)c2ccccc2)C3(C)C)c2sccc2n1
How it was run: as §1

dasatinib = compound: Cc1nc(Nc2ncc(C(=O)Nc3c(C)cccc3Cl)s2)cc(N2CCN(CCO)CC2)n1 [dasatinib]
How it was run: as §1

[5] = compound: Cc1ncc(-c2ccnc(Nc3ccc(S(C)(=O)=O)cc3)n2)n1C(C)C
How it was run: as §1

[6] = compound: Cn1cc(-c2ccc3c(c2)CCN3C(=O)Cc2cccc(C(F)(F)F)c2)c2c(N)ncnc21
How it was run: as §1

tipifarnib = compound: Cn1cncc1[C@@](N)(c1ccc(Cl)cc1)c1ccc2c(c1)c(-c1cccc(Cl)c1)cc(=O)n2C [tipifarnib]
How it was run: as §1

[7] = compound: NC1(c2ccc(-c3nc4ccn5c(=O)[nH]nc5c4cc3-c3ccccc3)cc2)CCC1
How it was run: as §1

lapatinib = compound: CS(=O)(=O)CCNCc1ccc(-c2ccc3ncnc(Nc4ccc(OCc5cccc(F)c5)c(Cl)c4)c3c2)o1 [lapatinib]
How it was run: as §1

[8] = compound: NC(=O)c1cnc(N[C@@H]2CCCC[C@@H]2N)nc1Nc1cccc(-n2nccn2)c1
How it was run: as §1

pictilisib = compound: CS(=O)(=O)N1CCN(Cc2cc3nc(-c4cccc5[nH]ncc45)nc(N4CCOCC4)c3s2)CC1 [pictilisib]
How it was run: as §1

bafetinib = compound: Cc1ccc(NC(=O)c2ccc(CN3CC[C@H](N(C)C)C3)c(C(F)(F)F)c2)cc1Nc1nccc(-c2cncnc2)n1 [bafetinib]
How it was run: as §1

tozasertib = compound: Cc1cc(Nc2cc(N3CCN(C)CC3)nc(Sc3ccc(NC(=O)C4CC4)cc3)n2)n[nH]1 [tozasertib]
How it was run: as §1

Measured: log2 fold change

VEGFA isoform 14 (UniProt P15692)
inactive: crizotinib 0.036 | [1] -0.049 | gandotinib -0.167 | doramapimod -0.032 | [2] 0.016 | quisinostat 0.105 | [3] 0.014

UNC119 (UniProt Q13432)
inactive: crizotinib -0.002 | duvelisib 0.029 | doramapimod 0.111 | nilotinib 0.02 | [4] 0.01 | dasatinib -0.171 | [5] 0.016 | [6] -0.033 | quisinostat -0.056 | tipifarnib 0.061 | [3] 0.137 | [7] -0.074

VAV2 (UniProt P52735)
inactive: lapatinib 0.192 | duvelisib -0.069 | dasatinib -0.171 | [6] -0.133 | [8] 0.11

VGLL4 isoform 4 (UniProt Q14135)
inactive: pictilisib -0.133 | crizotinib 0.109 | [1] -0.077 | duvelisib -0.027 | gandotinib 0.063 | doramapimod 0.067 | bafetinib 0.205 | [2] -0.079 | nilotinib 0.006 | [4] -0.003 | dasatinib 0.118 | [5] -0.036 | [6] -0.024 | quisinostat -0.014 | tipifarnib 0.021 | [3] -0.051 | [7] 0.034

USP15 isoform 3 (UniProt Q9Y4E8)
inactive: lapatinib -0.067 | crizotinib 0.032 | duvelisib -0.049 | doramapimod -0.024 | dasatinib -0.014 | [6] -0.006 | quisinostat -0.007 | [3] -0.053 | [8] 0.007

UHRF2 (UniProt Q96PU4)
inactive: crizotinib -0.07 | doramapimod -0.055 | quisinostat 0.039 | [3] -0.033

VASN (UniProt Q6EMK4)
inactive: duvelisib -0.119 | tozasertib 0.08 | dasatinib 0.081 | [6] 0.027 | [7] -0.059

UNG (UniProt P13051)
inactive: pictilisib 0.098 | [1] -0.071 | duvelisib 0.068 | gandotinib 0.052 | tozasertib 0.15 | bafetinib -0.076 | [2] 0.008 | dasatinib -0.021 | [6] 0.069 | [7] 0.076

USP37 (UniProt Q86T82)
inactive: crizotinib -0.021 | tozasertib -0.035 | doramapimod -0.093 | quisinostat 0.049 | [3] 0.159

UNC13A (UniProt Q9UPW8)
inactive: [1] -1.52 | gandotinib 0.331 | [2] 0.481 | nilotinib 0.114 | [4] 0.046 | [5] 0.165 | tipifarnib 0.064 | [7] -0.048

VGF (UniProt O15240)
inactive: duvelisib -0.022 | tozasertib 0.274 | dasatinib 0.04 | [6] -0.188 | [7] -0.242

UNKL (UniProt E9PDK2)
inactive: pictilisib -0.113 | crizotinib -0.078 | duvelisib 0.184 | tozasertib -0.039 | doramapimod 0.07 | bafetinib -0.041 | dasatinib -0.216 | [6] 0.006 | quisinostat 0.015 | [3] 0.045

USP20 (UniProt Q9Y2K6)
inactive: pictilisib -0.145 | crizotinib -0.037 | duvelisib 0.093 | tozasertib 0.074 | doramapimod -0.019 | bafetinib 0.196 | dasatinib 0 | [6] -0.016 | quisinostat -0.103 | [3] 0.225 | [7] 0.073

VCPKMT (UniProt Q9H867)
inactive: pictilisib -0.135 | crizotinib -0.139 | doramapimod 0.026 | bafetinib -0.014 | quisinostat -0.063 | [3] 0.07 | [7] -0.177

VEGFA (UniProt H0YBI8)
inactive: [1] 0.026 | gandotinib 0.053 | [2] -0.049

UGCG (UniProt Q16739)
inactive: pictilisib 0.004 | crizotinib 0.196 | duvelisib 0.126 | doramapimod -0.021 | bafetinib -0.092 | nilotinib 0.036 | [4] -0.076 | dasatinib 0.046 | [5] 0.004 | [6] -0.03 | quisinostat 0.107 | tipifarnib -0.046 | [3] -0.016 | [7] -0.006

USP22 (UniProt Q9UPT9)
inactive: pictilisib 0.001 | crizotinib -0.072 | [1] 0.004 | duvelisib -0.006 | gandotinib -0.148 | tozasertib 0.036 | doramapimod -0.029 | bafetinib -0.032 | [2] 0.019 | nilotinib -0.032 | [4] 0.002 | dasatinib 0.022 | [5] 0.037 | [6] 0.028 | quisinostat -0.065 | tipifarnib -0.028 | [3] 0.004 | [7] -0.012

UQCRB (UniProt E5RHG9)
inactive: duvelisib -0.056 | dasatinib 0.028 | [6] 0.102

Quoted at random: two entries already listed, in no set order.
UHRF2 (UniProt Q96PU4)
inactive: crizotinib -0.07 | doramapimod -0.055 | quisinostat 0.039 | [3] -0.033

USP37 (UniProt Q86T82)
inactive: crizotinib -0.021 | tozasertib -0.035 | doramapimod -0.093 | quisinostat 0.049 | [3] 0.159

Continued.

USP30 (UniProt Q70CQ3)
inactive: crizotinib -0.063 | [1] 0.1 | duvelisib -0.056 | gandotinib -0.07 | doramapimod -0.153 | [2] 0.063 | dasatinib 0.145 | [6] -0.226 | quisinostat 0.036 | [3] 0.215 | [7] -0.005

USP54 (UniProt Q70EL1)
inactive: crizotinib -0.029 | doramapimod -0.087 | quisinostat 0.003 | [3] 0.08

UCP2 (UniProt P55851)
inactive: doramapimod -0.141 | nilotinib 0.144 | [4] -0.186 | [5] -0.137 | quisinostat -0.022 | tipifarnib 0.142 | [3] 0.059
active: crizotinib -0.441

USP27X (UniProt A6NNY8)
inactive: crizotinib -0.149 | doramapimod -0.012 | quisinostat -0.269 | [3] 0.124

USP36 (UniProt Q9P275)
inactive: lapatinib -0.096 | crizotinib -0.093 | [1] 0.034 | gandotinib 0.079 | tozasertib 0.107 | doramapimod 0.01 | [2] -0.031 | nilotinib 0.258 | [4] -0.002 | [5] -0.092 | quisinostat -0.019 | tipifarnib -0.262 | [3] 0.067 | [8] 0.06

URGCP (UniProt Q8TCY9)
inactive: pictilisib -0.025 | duvelisib 0.158 | bafetinib -0.137 | nilotinib 0.028 | [4] 0.079 | dasatinib -0.204 | [5] -0.04 | [6] -0.145 | tipifarnib -0.008

USP19 isoform 4 (UniProt O94966)
inactive: lapatinib 0.1 | duvelisib -0.05 | tozasertib -0.058 | dasatinib -0.104 | [6] 0.04 | [8] 0.135 | [7] -0.007

USP6NL isoform 2 (UniProt Q92738)
inactive: lapatinib -0.032 | crizotinib -0.224 | [1] 0.018 | gandotinib 0.029 | tozasertib -0.098 | doramapimod -0.003 | [2] -0.035 | nilotinib -0.022 | [4] 0 | [5] -0.065 | quisinostat 0.12 | tipifarnib -0.165 | [3] 0.018 | [8] 0.033

USP40 isoform 3 (UniProt Q9NVE5)
inactive: crizotinib -0.096 | duvelisib 0.134 | doramapimod 0.005 | nilotinib 0.041 | [4] -0.059 | dasatinib -0.121 | [5] 0.019 | [6] 0.003 | quisinostat -0.074 | tipifarnib -0.084 | [3] 0.063 | [7] 0.247
